± gives the standard deviation of the averaged measurements. Most values lie at the level of the controls, where differences are scatter.
Experiments:
Assay in all cases: level (log10 ratio to DMSO vehicle control); higher = higher biomarker level / cell amount than vehicle control
[1] = compound: C=C(C)C(=O)OCCC(F)(F)C(F)(F)C(F)(F)C(F)(F)C(F)(F)C(F)(F)C(F)(F)C(F)(F)F [8:2 Fluorotelomer methacrylate]; conditions: in DMSO
Method: (§1)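 BioMAP Diversity Plus panel of 12 human primary cell co-culture systems (3C, 4H, LPS, SAg, BT, BF4T, BE3C, CASM3C, HDF3CGF, KF3CT, MyoF, Mphg). Compounds were added 1 h before stimulation and left for 24 h (MyoF 48 h; BT 72 h for soluble read-outs or 6 d for IgG). Biomarkers were read by ELISA, cytotoxicity by SRB, PBMC viability and proliferation by Alamar Blue. Each well value was divided by the mean of 8 DMSO control wells on the same plate and log10 transformed; duplicate blinded samples were tested at 4 concentrations.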

Tetrafluorosuccinic acid = compound: O=C(O)C(F)(F)C(F)(F)C(=O)O [Tetrafluorosuccinic acid]; conditions: 2200 nM; in DMSO
Method: as §1

[2] = compound: O=C(O)C(F)(F)C(F)(F)C(F)(F)C(F)(F)C(F)(F)C(F)(F)C(F)(F)C(F)(F)Cl [9-Chloro-perfluorononanoic acid]; conditions: in DMSO
Method: as §1

[3] = compound: O=S(=O)(O)C(F)(F)C(F)(F)OC(F)(F)C(F)(F)F [Perfluoro(2-ethoxyethane)sulfonic acid]; conditions: 2200 nM; in DMSO
Method: as §1

[4] = compound: O=S(=O)(O)CCC(F)(F)C(F)(F)C(F)(F)C(F)(F)C(F)(F)C(F)(F)F [6:2 Fluorotelomer sulfonic acid]; conditions: in DMSO
Method: as §1

[5] = compound: C=C(C)C(=O)OCCC(F)(F)C(F)(F)C(F)(F)C(F)(F)C(F)(C(F)(F)F)C(F)(F)F [(Perfluoro-5-methylhexyl)ethyl 2-methylprop-2-enoate]; conditions: in DMSO
Method: as §1

Nonafluoropentanamide = compound: NC(=O)C(F)(F)C(F)(F)C(F)(F)C(F)(F)F [Nonafluoropentanamide]; conditions: 2200 nM; in DMSO
Method: as §1

[6] = compound: O=C(O)CCC(F)(F)C(F)(F)C(F)(F)C(F)(F)C(F)(F)F [2H,2H,3H,3H-Perfluorooctanoic acid]; conditions: 2200 nM; in DMSO
Method: as §1

[7] = compound: FC(F)(F)C(F)(F)C(F)(F)C(F)(F)C(F)(F)CCI [1-Iodo-1H,1H,2H,2H-perfluoroheptane]; conditions: 2200 nM; in DMSO
Method: as §1

[8] = compound: COC(=O)CCC(F)(F)C(F)(F)C(F)(F)C(F)(F)F [Methyl 2H,2H,3H,3H-perfluoroheptanoate]; conditions: 2200 nM; in DMSO
Method: as §1

Octafluoroadipamide = compound: NC(=O)C(F)(F)C(F)(F)C(F)(F)C(F)(F)C(N)=O [Octafluoroadipamide]; conditions: 2200 nM; in DMSO
Method: as §1

Perfluoropinacol = compound: OC(C(F)(F)F)(C(F)(F)F)C(O)(C(F)(F)F)C(F)(F)F [Perfluoropinacol]; conditions: in DMSO
Method: as §1

[9] = compound: OCCC(F)(F)C(F)(F)C(F)(F)C(F)(F)F [4:2 Fluorotelomer alcohol]; conditions: 2200 nM; in DMSO
Method: as §1

[10] = compound: NS(=O)(=O)C(F)(F)C(F)(F)C(F)(F)C(F)(F)C(F)(F)C(F)(F)F [Perfluorohexanesulfonamide]; conditions: 2200 nM; in DMSO
Method: as §1

Test System	level (log10) ([1]; 740 nM)	level (log10) ([1]; 2200 nM)	level (log10) (Tetrafluorosuccinic acid)	level (log10) ([2]; 2200 nM)	level (log10) ([2]; 6700 nM)	level (log10) ([2]; 20000 nM)	level (log10) [3]	level (log10) ([4]; 2200 nM)	level (log10) ([4]; 6700 nM)	level (log10) ([4]; 20000 nM)	level (log10) ([4]; 60000 nM)	level (log10) ([5]; 740 nM)	level (log10) ([5]; 2200 nM)	level (log10) ([5]; 6700 nM)	level (log10) ([5]; 20000 nM)	level (log10) (Nonafluoropentanamide)	level (log10) [6]	level (log10) [7]	level (log10) [8]	level (log10) (Octafluoroadipamide)	level (log10) (Perfluoropinacol; 2200 nM)	level (log10) (Perfluoropinacol; 6700 nM)	level (log10) (Perfluoropinacol; 20000 nM)	level (log10) [9]	level (log10) [10]
HDF3CGF:CXCL10/IP-10	-0.0265 ± 0.052	-0.0125 ± 0.04	-0.008 ± 0.013	-0.032 ± 0.02	-0.06 ± 0.027	-0.175 ± 0.0021	-0.0035 ± 0.015	-0.026 ± 0.016	-0.0075 ± 0.018	-0.046 ± 0.021	-0.0325 ± 0.042	0.0105 ± 0.026	0.002 ± 0.011	-0.0005 ± 0.0078	-0.003	0.007 ± 0.034	-0.0245 ± 0.0021	0.0055 ± 0.03	0.005	-0.022 ± 0.031	-0.0305 ± 0.044	-0.0535 ± 0.023	-0.215 ± 0.012	-0.006 ± 0.0042	0.0035 ± 0.023
MyoF:bFGF	0.0025 ± 0.0035	0.0095 ± 0.0064	-0.005 ± 0.011	0.004 ± 0.018	-0.003 ± 0.023	0.0085 ± 0.011	0.02 ± 0.014	0.007 ± 0.016	-0.0065 ± 0.0078	0.019 ± 0.013	0.0235 ± 0.044	-0.0185 ± 0.0021	0.021 ± 0.0057	-0.0015 ± 0.005	0.002 ± 0.0014	0.0185 ± 0.028	0.005 ± 0.013	0.0015 ± 0.013	-0.024 ± 0.025	0.004 ± 0.031	-0.0135 ± 0.011	-0.0075 ± 0.012	-0.0225 ± 0.0092	0.002 ± 0.024	0.0025 ± 0.0078
KF3CT:IL-1alpha	-0.0375 ± 0.005	-0.024	0.0185 ± 0.021	0.0005 ± 0.018	-0.0295 ± 0.042	-0.056 ± 0.031	-0.0245 ± 0.018	-0.0165 ± 0.0092	0.0115 ± 0.016	0.0005 ± 0.016	-0.0255 ± 0.039	-0.0145 ± 0.0021	-0.003 ± 0.021	-0.014 ± 0.0028	-0.0225 ± 0.0035	0.0065 ± 0.018	-0.04 ± 0.0085	0.004 ± 0.0099	0.011 ± 0.055	0.0035 ± 0.022	0.017 ± 0.013	0.0765 ± 0.028	0.155 ± 0.032	-0.0025 ± 0.037	0.0145 ± 0.026
BF4T:MMP-9	0.028 ± 0.1	0.0125 ± 0.077	-0.0015 ± 0.018	-0.028 ± 0.064	-0.0395 ± 0.036	-0.0715 ± 0.019	0.015 ± 0.033	0.0085 ± 0.05	-0.0015 ± 0.036	-0.0095 ± 0.0078	0.018 ± 0.024	-0.0255 ± 0.043	-0.0115 ± 0.021	-0.036 ± 0.05	-0.007 ± 0.038	-0.028 ± 0.016	0.0085 ± 0.059	-0.004 ± 0.033	-0.008 ± 0.014	0.0015 ± 0.029	-0.0035 ± 0.023	-0.0245 ± 0.00071	-0.0515 ± 0.0092	-0.011 ± 0.027	0.0215 ± 0.035
CASM3C:HLA-DR	0.009 ± 0.013	0.0015 ± 0.0078	-0.008 ± 0.0028	0.01 ± 0.016	0.0085 ± 0.0035	0.0015 ± 0.012	0.0185 ± 0.011	0.0085 ± 0.029	0.0245 ± 0.005	-0.0115 ± 0.0035	-0.001 ± 0.0085	-0.0125 ± 0.0064	-0.0185 ± 0.0078	-0.0175 ± 0.019	-0.01 ± 0.0085	-0.0205 ± 0.013	-0.0025 ± 0.04	0.008 ± 0.025	0.015 ± 0.013	0.007 ± 0.072	-0.0335 ± 0.0021	-0.0885 ± 0.042	-0.207	-0.0185 ± 0.00071	0.0125 ± 0.039
lMphg:M-CSF	0.01 ± 0.048	-0.003 ± 0.013	-0.0045 ± 0.023	0 ± 0.023	-0.0055 ± 0.0021	-0.0045 ± 0.0021	-0.002 ± 0.0028	-0.0075 ± 0.028	0.0045 ± 0.0078	-0.023 ± 0.028	-0.0145 ± 0.0064	0.0235 ± 0.012	0.0115 ± 0.005	-0.005 ± 0.042	0.015 ± 0.042	0.027 ± 0.0042	-0.028 ± 0.027	-0.0235 ± 0.0092	0.0185 ± 0.032	0.002 ± 0.031	-0.0075 ± 0.037	-0.0155 ± 0.04	-0.0825 ± 0.013	-0.02 ± 0.037	-0.0415 ± 0.011
lMphg:CD106/VCAM-1	0.005 ± 0.0085	-0.0265 ± 0.0092	0.006 ± 0.0099	-0.0155 ± 0.013	-0.011 ± 0.0099	-0.016 ± 0.0071	-0.0205 ± 0.033	-0.006 ± 0.017	-0.007 ± 0.011	-0.0125 ± 0.0092	-0.022 ± 0.0071	-0.0045 ± 0.0092	-0.004 ± 0.013	-0.0315 ± 0.011	-0.014 ± 0.0057	-0.01 ± 0.011	-0.0035 ± 0.016	-0.0095 ± 0.028	-0.0055 ± 0.00071	0.001 ± 0.018	0.0095 ± 0.0021	0.0045 ± 0.0064	-0.077 ± 0.023	0.005 ± 0.0099	-0.025 ± 0.025
4H:CD62P/P-selectin	-0.0295 ± 0.073	-0.047 ± 0.042	0.025 ± 0.055	0.0285 ± 0.005	-0.001 ± 0.065	0.0815 ± 0.023	0.0475 ± 0.023	-0.0205 ± 0.04	-0.004 ± 0.064	-0.003 ± 0.051	-0.013 ± 0.054	-0.0255 ± 0.013	-0.0355 ± 0.00071	-0.017 ± 0.03	-0.02 ± 0.028	0.0035 ± 0.067	0.0215 ± 0.032	0 ± 0.045	-0.034 ± 0.051	0.0425 ± 0.037	0.0275 ± 0.022	-0.0165 ± 0.022	-0.217 ± 0.06	0.016 ± 0.027	0.062 ± 0.0042
CASM3C:Serum Amyloid A	0.026 ± 0.028	-0.011 ± 0.0085	0.0205 ± 0.046	-0.014 ± 0.0085	0.001 ± 0.016	0.0285 ± 0.011	0.004 ± 0.041	-0.0055 ± 0.028	0.019 ± 0.014	0.021 ± 0.03	0.017 ± 0.031	0.0025 ± 0.08	0.005 ± 0.011	-0.0325 ± 0.021	0.025 ± 0.0085	0.029 ± 0.037	0.0155 ± 0.0021	0.001 ± 0.05	0.0095 ± 0.025	0.001 ± 0.017	0.0195 ± 0.037	0.0545 ± 0.0078	0.0595 ± 0.015	-0.044 ± 0.071	0.0075 ± 0.012
3C:CD62E/E-Selectin	-0.008 ± 0.0071	-0.0165 ± 0.00071	-0.011 ± 0.034	0.015 ± 0.018	-0.005 ± 0.0057	0.001 ± 0.017	0.019 ± 0.031	-0.013 ± 0.021	-0.021 ± 0.034	0.003 ± 0.048	0.026 ± 0.038	-0.003	0.0015 ± 0.0021	-0.0095 ± 0.018	-0.0175 ± 0.0021	-0.022 ± 0.041	-0.0055 ± 0.025	0.015 ± 0.02	-0.014 ± 0.0071	-0.0085 ± 0.028	-0.009 ± 0.018	-0.007 ± 0.013	-0.0605 ± 0.03	-0.0075 ± 0.0021	-0.0005 ± 0.029

Source: the supplement of paper PMC10331698
